# Results taken from the supplement of paper PMC3334620.
# The full ranking holds about 33,000 sequences; the median of “E-score (-0.5 to 0.5)” is about -0.0014, and the highest 2% start at about 0.25. This is one part of the list.
# Target: T1, Cad1 (UniProt P24813)
# T1 sequence: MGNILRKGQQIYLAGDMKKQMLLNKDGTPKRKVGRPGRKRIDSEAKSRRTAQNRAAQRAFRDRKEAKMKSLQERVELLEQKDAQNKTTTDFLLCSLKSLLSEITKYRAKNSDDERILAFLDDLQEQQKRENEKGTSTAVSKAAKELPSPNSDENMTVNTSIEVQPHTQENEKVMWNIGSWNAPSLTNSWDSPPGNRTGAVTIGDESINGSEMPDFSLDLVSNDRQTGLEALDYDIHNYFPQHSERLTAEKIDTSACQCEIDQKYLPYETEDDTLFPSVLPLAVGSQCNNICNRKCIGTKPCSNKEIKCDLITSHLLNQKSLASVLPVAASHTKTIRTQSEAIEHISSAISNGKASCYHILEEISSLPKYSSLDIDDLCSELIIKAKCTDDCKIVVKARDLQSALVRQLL
# Assay: PBM E-score (8-mer binding enrichment) (E-score (-0.5 to 0.5)); higher = stronger / more preferred TF binding
# Conditions: protein concentration: 100 nM; construct: GST-full length
# How it was run: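 E-scores (a modified Wilcoxon-Mann-Whitney statistic) were assigned by the Universal PBM Analysis Suite to every ungapped eight-base word pooled with its reverse complement. The input came from universal all-10-mer Agilent arrays made double-stranded by primer extension and probed with GST-tagged yeast transcription factors at about 100-200 nM. Fluorescent anti-GST detected bound protein, and masliner normalised the scans.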
row,Sequence,PBM E-score
1,CGTAAACC,-0.0624
2,ATGATCAT,0.238
3,CGAGGGCC,-0.0726
4,AAAGGAGG,-0.268
5,CAATAATC,0.186
6,GAAGTCTC,0.077
7,CGGAAACA,-0.0499
8,GATACACC,0.257
9,AGGCCGGA,-0.162
10,CATAGACG,0.0683
11,ACGAACGT,0.0788
12,CGCGACAA,0.24
13,AGCCACAT,0.104
14,AACAGTGT,-0.00803
15,CACAAGCC,-0.109
16,CGACGATC,0.153
17,CCCATTTA,-0.0471
18,CTCACTTC,-0.0448
19,GATTTGGC,0.0193
20,ATGCCCGA,-0.0531
21,AGCATAGA,0.0341
22,ACGTCACT,0.15
23,CCACATAA,0.0159
24,CGGCGCAA,0.0297
25,TAATATTA,0.424

row,Sequence,PBM E-score
1,CCTCTCGC,-0.188
2,ATCGCAAT,0.167
3,AATATAAA,0.251
4,AGTCTAGC,-0.184
5,GACATCCC,0.138
6,ATATTACA,0.347
7,CTTGGTAA,0.0981
8,CGGTTGGC,0.0738
9,GGCAGAAC,-0.0675
10,GAATCGTC,0.0319
11,CTCAACAA,0.0921
12,ATTCGAGG,-0.0551
13,CCAGAGGG,-0.25
14,ATCTTTGG,-0.159
15,GATCCTAA,-0.048
16,AGCCGTCA,0.035
17,CGTACCAG,-0.0767
18,TTGGACAA,0.0833
19,ATGTACAT,0.248
20,AGATCGTA,-0.0956
21,ATGGTAAT,0.119
22,AACCATGG,0.0546
23,AGCCACGG,-0.149
24,CTAGGTGA,-0.148
25,ACGCACGC,0.135

row,Sequence,PBM E-score
1,CGTAGCCA,-0.0711
2,CAGTGCAG,-0.0154
3,ACTGAAGG,-0.0483
4,AAACCTGA,-0.019
5,GCGCTTGA,0.185
6,GCAGACAA,0.0665
7,AGCACGCC,-0.0364
8,AGGAGGTA,-0.166
9,CAGACTTC,-0.0781
10,AGACCCAC,-0.0306
11,ATTTTAGA,-0.101
12,GGTCCAAA,-0.0949
13,GGCCCGAA,0.15
14,ATGGGTTA,0.0421
15,CCGCTTCA,0.0411
16,AGAGAGAT,-0.00189
17,AAAGCCAA,-0.0764
18,CCTGTAAA,-0.0844
19,CCCTGAAA,-0.0497
20,AGATATGG,0.0179
21,GATCGGGC,0.00085
22,AGTTTCCC,0.0233
23,CCACGAGC,0.0134
24,ACTTTTAA,0.00326
25,CGCGAAGA,0.273

row,Sequence,PBM E-score
1,ACTGCGGA,-0.0651
2,ACCGCGCT,0.085
3,ACTCTCGC,-0.0414
4,AGGAACGA,-0.168
5,CCGACTGC,-0.135
6,ACTCAGCT,-0.0714
7,ATCTGCAA,-0.0858
8,ACTGCGCA,0.0568
9,AATTACTG,0.14
10,ACCCCATC,-0.0268
11,CATGGACC,-0.126
12,ACAGTTGA,-0.0318
13,AGGTAAAG,0.267
14,ATCCGACC,-0.0165
15,ATCAGTAG,0.0136
16,AGTTTATA,0.232
17,CCCATAAC,-0.152
18,AGCTTCCG,0.185
19,CCATGTCG,0.0544
20,CGAATTAA,0.132
21,AAACGTGC,-0.16
22,ATGGCGTC,0.0759
23,ACTTGCGA,0.126
24,AAGTATAT,0.00502
25,ACAAGCCC,-0.145

row,Sequence,PBM E-score
1,CCGGACCA,-0.102
2,AGCACTGA,0.0602
3,ACGTTATC,-0.0185
4,GCCACCGA,-0.127
5,AGACCGAC,-0.0885
6,AACAGCCT,-0.164
7,ATCCTGAC,0.0925
8,CGAAATCC,0.0502
9,TGGAGTAA,0.149
10,CCCAGGGA,-0.44
11,TCTTGCAA,0.0683
12,ATATTTTA,0.173
13,CGAGTATA,0.138
14,ACATATGC,-0.245
15,CGCTAACA,0.0296
16,GTTGCGCA,0.0816
17,GTGTCCGA,0.0562
18,AAGACCTT,-0.0766
19,ATTCCGTC,-0.0303
20,TGTCCAAA,0.0578
21,AAGCCTAC,0.0195
22,AGGAGGAT,-0.0825
23,CACCGGGC,-0.27
24,GGGGGTGA,-0.29
25,AACCCACT,0.129

row,Sequence,PBM E-score
1,CTTGGAAA,-0.0032
2,CCCGCTTC,-0.132
3,GTTAAAAA,0.0639
4,ATCAATTC,-0.026
5,ACCAGCCT,-0.0343
6,GCTTGTCC,0.0808
7,CCAGCGAG,-0.105
8,AGCCGGAG,0.0999
9,AGGATCGA,-0.0677
10,ACAGGCAT,-0.0751
11,GTATACAC,0.173
12,CCTGAACC,0.0977
13,GAAGGCAC,-0.0389
14,GGCAGCCC,-0.234
15,CCATGTCA,-0.167
16,CCTTGGAC,-0.214
17,CTTAGTGC,0.0405
18,GGGGACAC,-0.24
19,AGCAAGCG,0.0981
20,AAAACTTT,-0.0666
21,AACGGCCA,-0.0196
22,CACTGGTC,-0.155
23,AAATGACC,-0.0306
24,GCAACGCC,0.052
25,ATATTAAG,0.115

# Rewritten as tab-separated lines: part of the list above
row	Sequence	PBM E-score
8	GATACACC	0.257
9	AGGCCGGA	-0.162
10	CATAGACG	0.0683
11	ACGAACGT	0.0788
12	CGCGACAA	0.24
13	AGCCACAT	0.104
14	AACAGTGT	-0.00803

# (listing goes on)

row,Sequence,PBM E-score
1,AGTTGCTC,-0.063
2,GCGTCAAA,0.0749
3,CGGTTACC,-0.0522
4,ACACGCGT,0.258
5,AGTAGCGG,0.164
6,GAATGCCA,-0.132
7,CGAAACGC,-0.103
8,GGCGGGGA,0.201
9,CCGATCTA,-0.0751
10,ACAGTGGT,-0.0157
11,GGCCTAAA,-0.086
12,ACCAGTGG,-0.19
13,ACAGACAG,0.0659
14,GACGTCGA,0.166
15,ACTGTCGA,0.0753
16,ATCCTTTC,-0.0427
17,ATCCGAGA,0.144
18,CACGACCA,-0.00283
19,CTACCTGC,0.0404
20,AGGTATAG,-0.0854
21,GCGTAGGA,-0.0794
22,CTGAACAC,0.195

# Random excerpt: two records from the list
row,Sequence,PBM E-score
3,CGGTTACC,-0.0522
18,CACGACCA,-0.00283
